Values from PubChem BioAssay AID1259254 (NCATS, 2017).
Test: 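Finding genes that stop cells copying their DNA twice in one cycle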 (primary screen). Cells: human HCT116 colorectal cancer cells. Knock-down reagent: single siRNA against human genes. Timing: 3 days. Detection: 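Nuclei stained with Hoechst and imaged; cell-cycle phase assigned by DNA content; G2 share scaled per plate, non-targeting siRNA 0%, GMNN siRNA 100%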. Direction: G2 robust z-score and G2 cells, % of GMNN control: higher = more G2 cells, more excess DNA replication; raw share of cells in G2: higher = larger share of cells with G2 DNA content. Active means: 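Active siRNAs have a G2 robust z of 5 or more median absolute deviations over the median, which in these data means about 38% or higher of GMNN control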.
In all, the deposit lists about 59,000 reagents; this is a random part of them. Of all reagents, about 1,550 (2.6%) are marked active. 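G2 share is only a proxy for re-replication; each gene was hit by three separate siRNAs, and active genes were retested.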 Raw values vary from plate to plate and are shown uncorrected. A number with no mark means an inactive call. The numbers tell different reagents against one gene apart. Not stated in the record: the amount of reagent.

target gene	siRNA no.	G2 robust z-score	G2 cells, % of GMNN control	raw share of cells in G2 (%)
LINC02551 (long independently transcribed non-coding RNA 2551)	1	-0.548	-0.89	3.49
LINC02551 (long independently transcribed non-coding RNA 2551)	2	-1.19	-5.39	1.38
LINC02551 (long independently transcribed non-coding RNA 2551)	3	-0.524	-0.72	4.49
ZBED5-AS1 (ZBED5 antisense RNA 1)	1	0.209	4.44	5.63
ZBED5-AS1 (ZBED5 antisense RNA 1)	2	-0.81	-2.73	2.44
ZBED5-AS1 (ZBED5 antisense RNA 1)	3	0.00227	2.98	4.27
KY (kyphoscoliosis peptidase)	1	-0.83	-2.87	3
KY (kyphoscoliosis peptidase)	2	-0.511	-0.624	2.99
KY (kyphoscoliosis peptidase)	3	-0.535	-0.796	3.87
RAF1 (Raf-1 proto-oncogene, serine/threonine kinase)	1	-2	-11.1	1.94
RAF1 (Raf-1 proto-oncogene, serine/threonine kinase)	2	-0.701	-1.97	4.75
RAF1 (Raf-1 proto-oncogene, serine/threonine kinase)	3	-1.25	-5.8	1.98
FBXL7 (F-box and leucine rich repeat protein 7)	1	2.51	20.6	13.1
FBXL7 (F-box and leucine rich repeat protein 7)	2	-0.822	-2.82	2.97
FBXL7 (F-box and leucine rich repeat protein 7)	3	-0.477	-0.388	3.03
SYT4 (synaptotagmin 4)	1	-0.692	-1.9	2.7
SYT4 (synaptotagmin 4)	2	0.022	3.12	6.31
SYT4 (synaptotagmin 4)	3	0.0362	3.22	4.28

Records listed so far whose gene name starts with K or k:
target gene	siRNA no.	G2 robust z-score	G2 cells, % of GMNN control	raw share of cells in G2 (%)
KY (kyphoscoliosis peptidase)	1	-0.83	-2.87	3
KY (kyphoscoliosis peptidase)	2	-0.511	-0.624	2.99
KY (kyphoscoliosis peptidase)	3	-0.535	-0.796	3.87

Further results follow.
target gene	siRNA no.	G2 robust z-score	G2 cells, % of GMNN control	raw share of cells in G2 (%)
NLRP4 (NLR family pyrin domain containing 4)	1	-0.326	0.677	4.06
NLRP4 (NLR family pyrin domain containing 4)	2	0.488	6.4	4.89
NLRP4 (NLR family pyrin domain containing 4)	3	-0.301	0.85	3.36
PLPPR4 (phospholipid phosphatase related 4)	1	-1.32	-6.34	2.46
PLPPR4 (phospholipid phosphatase related 4)	2	0.285	4.97	6.02
PLPPR4 (phospholipid phosphatase related 4)	3	1.41	12.9	8.1
LINC02363 (long independently transcribed non-coding RNA 2363)	1	-0.978	-3.92	2.12
LINC02363 (long independently transcribed non-coding RNA 2363)	2	-0.53	-0.764	3.25
LINC02363 (long independently transcribed non-coding RNA 2363)	3	-0.388	0.236	2.96
TNFRSF10C (TNF receptor superfamily member 10c)	1	3.83	29.9	15.4
TNFRSF10C (TNF receptor superfamily member 10c)	2	4.97	37.9	18.6
TNFRSF10C (TNF receptor superfamily member 10c)	3	-0.428	-0.043	4.52
